Source: PubChem BioAssay AID1347423 (Functional Genomics Laboratory (NCATS/FGL), 2020)
In all, about 52,000 sequences went through this assay and about 210 (0.4%) were called active.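 Rule for the calls: active = gene whose silencing raises cell survival under the drug, median off-target-corrected z-score across its silencing RNAs 2 or more; inactive = the rest.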 The list shows a part of the results.

Assay: Resistance to Poly (ADP-Ribose) Polymerase inhibitor: Gene Identification via Genome-wide siRNA Screen
Settings: mouse BRCA2 R2336H ES cells, olaparib, CellTiter-Glo viability; active compounds read high
Summary of the method: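 Mouse BRCA2 R2336H ES cells were reverse-transfected with siRNA (20 nM final), treated at 48 h with 500 nM olaparib, and read by CellTiter-Glo after 72 h. Scores: MAD-based z per siRNA, median per gene, seed off-target correction.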

Row | Sequence | z-score
1 | GGAAAGUCUUGAUGAGUUGTT against C230043N17Rik | inactive: 0.408
2 | GGUCCGAUAUCUGAGUCUCTT against Hic1 | inactive: -0.221
3 | GCACUCAGCUAGGUGAAGATT against Hnrpul1 | inactive: -1.79
4 | GGGUAUCAUUGUUUACCGATT against 1700034J06Rik | inactive: -0.431
5 | GGUGAACAAUCUUUUCCAGTT against 4930412F15Rik | inactive: -0.16
6 | GGCACCACUAAUCAUCAGATT against Pbef1 | inactive: 0.218
7 | GGGUGUGUUUUUAUGUGUUTT against Lcp2 | inactive: -0.943
8 | GGAUGGUAUUCCUAACCAGTT against Ccrk | inactive: -0.534
9 | GGUUGUUUUGCUUGUUGUATT against Tgfb1i4 | inactive: 1.16
10 | GGUCCGGAACAAAUUAGAUTT against Eif2ak1 | inactive: 0.546
11 | CCUGUUAAUGACACCCACGTT against Slc37a2 | inactive: -0.529
12 | GCUUUGUUGUACGACAACATT against Agr2 | inactive: 0.315
13 | GGACCUGUAUUCACACCUUTT against 2700038L12Rik | inactive: 1.84
14 | GGCAGAAGAGUGGUACAAGTT against Dok4 | inactive: 0.586
15 | GAGACUAAGCAGUGGAAGATT against Krtap21-1 | inactive: -0.468
16 | GGUGCAAGUUUUGGUGGGATT against 4833442J19Rik | inactive: -1.92
17 | GGGAAUGUAAACAAAGUCATT against Iqgap1 | inactive: 0.788
18 | GGUGACUGACAACCAGACATT against Dkkl1 | inactive: -0.172
19 | GGGAGUAAUGUUCUAAUCATT against Msh4 | inactive: 0.579
20 | AACUUUCUCAUUCUUACUGTT against Olfr961 | inactive: -1.05
21 | CCUUUCAUCACAAAGAAUGTT against 2010106G01Rik | inactive: 0.16
22 | GGCUAAUAAGUUCAAUCAATT against Wisp1 | inactive: 2.45
23 | GGAACCCAAACUGAAGUAUTT against Vps41 | inactive: -0.191

Random excerpt: 5 entries already listed.
Row | Sequence | z-score
21 | CCUUUCAUCACAAAGAAUGTT against 2010106G01Rik | inactive: 0.16
16 | GGUGCAAGUUUUGGUGGGATT against 4833442J19Rik | inactive: -1.92
10 | GGUCCGGAACAAAUUAGAUTT against Eif2ak1 | inactive: 0.546
12 | GCUUUGUUGUACGACAACATT against Agr2 | inactive: 0.315
13 | GGACCUGUAUUCACACCUUTT against 2700038L12Rik | inactive: 1.84

(listing goes on)

Row | Sequence | z-score
24 | GGAACUUCAGUGUCGUCUCTT against Olfr285 | inactive: -0.317
25 | GGAAUAUCCAGUAUUGAUUTT against Ly78 | inactive: -0.432
26 | GCCAGUUCGAUAUAUCUUCTT against Gstz1 | inactive: -0.478
27 | CCAAAAUGUAUACCUACUUTT against Car4 | inactive: -0.638
28 | GCCCAACCCAUCAUAGAUCTT against 2410104I19Rik | inactive: 0.881
29 | CCAUAGUAUUGAUGUCUGCTT against Cml2 | inactive: 0.819
30 | GGAGACAAAGCAUUAUCUATT against Usp33 | inactive: -0.127
31 | GCAGGUCUAAUAAUGGUCATT against Syt12 | inactive: 1.38
32 | GCACAAAUCUCUAAAGAUCTT against Cxcr6 | inactive: 0.372
33 | GGUGAUGGACGGAAGAAGATT against Pigc | inactive: 0.0655
34 | GGUAUUAUGACUGUAAAGGTT against Pp11r | inactive: 0.379
35 | GGAAGACAACUGAACAUUUTT against Ralgds | inactive: -1.09
36 | GGCCAAGCAUGUUUUGUCATT against 4933440J22Rik | inactive: 0.746
37 | GCAUAUGAUGCCUUCCUUCTT against 6430510M02Rik | inactive: 0.183
38 | GGAAGCUCUUAAAAGGUUGTT against 3110052N05Rik | inactive: -1.3
39 | CCACAUUUCUCUAACGAACTT against Prkra | inactive: -0.359
40 | GGACCCUCUAGAUGACCAATT against Trem2 | inactive: 0.658
41 | GGUUGAAAAGAAGUACAGUTT against Ctcf | inactive: 1.29
42 | GGGUAAGCCAAGAAGAAGUTT against Rgs4 | inactive: -0.218
43 | GCGGCCUUCGAAGAUAUUCTT against Pnliprp2 | inactive: -1.71
44 | GGCUGCAUUUAUUGAUAACTT against BC037135 | inactive: 0.35
45 | GCAUUAUCUGUGAAAAUCCTT against En2 | inactive: 0.32
46 | GGGUUCAAGGUAUUCUUAGTT against V1re5 | inactive: -0.31

Row | Sequence | z-score
47 | GGGUCAAUCAACUUCGAGGTT against Pkp2 | inactive: 0.443
48 | GGAAAUUAAGUGGAGAUCATT against Ebag9 | inactive: 0.18
49 | CCUAAGGCUCAAUGAGCCUTT against Etfb | inactive: -0.724
50 | GGGAAAGGAUUCAAUUAAGTT against D330050I23Rik | inactive: 0.489
51 | GGUAUCACCUUCGUUACUATT against Zc3hdc5 | inactive: -0.613
52 | CCAAAAGCUACGUGCCGUATT against Kif5a | inactive: -1.31
53 | GGGUAAUUUUGAUAUUGUCTT against Dpm1 | inactive: 0.995
54 | GGAUCCUCUGGUAAAGGGATT against Gng11 | inactive: 1.51
55 | GGCUUCAUGCUGGUCCUUGTT against Pim2 | inactive: 0.933
56 | GGGAUCAUAGACGAUAUUUTT against Fnbp4 | inactive: -1.41
57 | GCCUUUCCUACUAUGAAUATT against Bmx | inactive: 1.03
58 | GGUGAAGACCUUUGUCUCCTT against Matn3 | inactive: 0.391
59 | CCAAGGGUUGUUAAGUAUUTT against Cdh26 | inactive: 0.567
60 | CUUCCAGUGUAGACUUAUGTT against 9430025C20Rik | inactive: -0.908
61 | GGUUGUGAGUGAGAACACUTT against Prss35 | inactive: 0.576
62 | CCAAGAUUCGGUUUUGCUUTT against Trerf1 | inactive: 0.142
63 | GGAGAGCUGCAUGAUUUCATT against 1700073K01Rik | inactive: -1.33
64 | GCCAGGAAUCACAAGAGCUTT against Gm169 | inactive: 0.325
65 | CCCAACUUCAUUUGUGUAUTT against Itga4 | inactive: -1.15
66 | GGCUGUAAUGAGGACUGAUTT against Deb1 | inactive: -1.92
67 | CCUCUUUGGGACUAUAGACTT against Olfr1357 | inactive: -1.58
